Laboratory results published in patent US9809586B2, “Inhibitors of collagen prolyl 4-hydroxylase” (WISCONSIN ALUMNI RESEARCH FOUNDATION, priority 2015, dated 2017).

Experiment: Assay of Fe(II)-affinity for biheteroaryl ligands (Fe20-EC50 titration, spectrophotometry)
Format: physicochemical
Experimental: A library of biheteroaryl compounds (FIG. 2) was prepared and evaluated them as iron chelators in vitro. The library was assembled either from commercial vendors (pypyr and pyim) or by synthesis using palladium-catalyzed cross-coupling reactions (pypyraz, pypyrid, pyox, and pythi). To evaluate the iron affinity of these compounds in vitro, titration experiments were performed to determine the half-maximal concentration required to form a complex with 20 μM Fe(II) at pH 7.0.
The affinity of biheteroaryl ligands for Fe(II) was determined comparatively by measuring the half-maximal concentration (EC50) required for binding 20 μM Fe(II) (Fe20-EC50) in sodium phosphate buffer at pH 7. Stock solutions of ligands were prepared in either water for high affinity ligands (typically Fe20-EC50<1 mM) or DMSO for low affinity ligands (typically Fe20-EC50>1000 μM). Stock solutions of FeSO4 were prepared in H2O and used within 3 hours of preparation. […] For high affinity ligands, solutions were allowed to equilibrate for 15 min, after which the absorbance was recorded at the λmax for the complex under study. For most low affinity ligands, the corresponding Fe(II) complexes were unstable and observed to dissociate over time. Therefore, the absorbance value was determined within 30 s of mixing, where the absorbance was measured at the λmax for the complex under study. […]

**Q.** For `O=C(O)c1ccc(-c2ncc(C(=O)O)[nH]2)nc1` [pyimDC, 2-(5-Carboxy-1-H-imidazol-2-yl)pyridine-5-carboxylic Acid], which “Complex formation with free iron detected by spectrophotometry” value (concentrations up to 1 mM) is on record?
**A.** The value was “not observe”.

**Q.** With `c1ccc(-c2ncco2)nc1` [pyox, 2-(Oxazol-2-yl)pyridine] as the compound, how does the “Formation of Fe(II) complex” value (20 μM Fe(II), pH 7.0) read?
**A.** The value was “not observed”.
